Experimental data as given in patent US7919498B2, “Substituted pyrazolo[3,4-d]pyrimidines as PI3K inhibitors” (Amgen Inc., priority 2007, dated 2011).
Where two headings read alike, the source gives them in different places. At least one compound was matched to its structure with a doubt left.

Tests used:
[1] = tested on: neutrophil superoxide release; conditions: cited from earlier work
[2] = tested on: neutrophil migration; conditions: cited from earlier work
[3] = tested on: Class I PI 3-kinases; conditions: cited from earlier work
[4] = tested on: PI3K Class III; assay: Class III PI(3)P Assay (U2OS EGFP-2XFYVE Cells); format: cell-based; conditions: control, 10 uM
[5] = tested on: AKT1; assay: AKT Membrane Ruffling Assay (CHO-IR-AKT1-EGFP Cells); format: cell-based; conditions: control, 10 uM
[6] = tested on: Forkhead (FKHRL1); assay: Forkhead Translocation Assay (MDA MB468 Forkhead-DiversaGFP Cells); format: cell-based; conditions: control, 10 uM

SMILES	superoxide release [1]	neutrophil migration [2]	IC50 ([3]; read-out: IC50 against each of these PI 3-kinases)	PI(3)P on endosomes [4]	AKT localisation [5]	Forkhead localisation [6]	IC50 ([3]; read-out: IC50 against each of the various Class I PI 3-kinases)
O=c1cc(N2CCOCC2)oc2c(-c3ccccc3)cccc12 [LY294002]	block	block	~1000 nM				
COC[C@H]1OC(=O)c2coc3c2[C@@]1(C)C1=C(C3=O)[C@@H]2CCC(=O)[C@@]2(C)C[C@H]1OC(C)=O [wortmannin]	block	block		PI(3)P depleted from endosomes	AKT is cytoplasmic	Forkhead is nuclear	1 to 10 nM
